From article doi:10.1101/2021.08.13.456187
These are yes or no findings as the source states them, for the method shown. In cells and extracts the contact can be indirect. A yes stands for co-enrichment or nearness to the bait. Other partners may have been found.

Target: TbUbL1-myc (C-terminally triple c-myc-tagged Tb927.11.4130) (Trypanosoma brucei) (UniProt Q386A3)
Assay: affinity purification with mass spectrometry

“Tb927.10.780, a putative RING domain containing E3 ubiquitin ligase (from UniProt Q38CG2)” was tested, and the binding was “binds”.
